Source: PubChem BioAssay AID328 (DTP/NCI, 2004)
The list is a part of this screen's results and no random one: it is rich in T/C values a quarter to a half above the control, in often repeated tests (any T/C) and in doses without a T/C. Other doses and runs of a compound stand elsewhere. T/C gives the treated animals as a percentage of the vehicle group. Some doses have a count of surviving animals in place of a T/C: the source files T/C as zero there, which appears to mark a toxic dose or a test without result, not a measured value. Some survivor counts are full or nearly so, which does not show that the dose was tolerated: the source hardly ever lists a survival T/C far under the control, and the zero likely stands for such cases as well. Counts of survivors are from the toxicity check (mostly the fifth day) where no day follows; animals may have died later. Schedules are NCI's codes, taken here to give the interval after Q, in days (D) or hours (H), and the number of doses after X. Some entries hold several experiments; their values stand side by side, smallest first. For survival time, the PubChem record calls one and a half times the control and up active, and a quarter to a half above the control has no call in these data; cut-offs in other NCI protocols can differ. Some T/C values are followed by the survivors on the day toxicity was checked, most often the fifth; without a count, all were alive then.

Test system: BDF1 mice, P388 leukemia ip, median survival T/C
Assay: NCI In Vivo Anticancer Drug Screen. Data for tumor model P388 Leukemia (intraperitoneal) in B6D2F1 (BDF1) mice
Conditions: T/C endpoint: median survival time, higher T/C = longer survival
In short: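 Vehicle-dosed animals serve as the reference; survival of compound-dosed, tumour-implanted mice is divided by it.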

[1] = dose: 100.0 mg/kg/injection, schedule: Q01DX009 (ip), vehicle: saline with Tween-80
[2] = dose: 200.0 mg/kg/injection, schedule: Q01DX009 (ip), vehicle: saline with Tween-80
[3] = dose: 37.5 mg/kg/injection, schedule: Q01DX009 (ip), vehicle: saline with Tween-80
[4] = dose: 200.0 mg/kg/injection, schedule: Q04DX003 (ip), vehicle: other
[5] = dose: 200.0 mg/kg/injection, schedule: Q01DX009 (ip), vehicle: saline
[6] = dose: 25.0 mg/kg/injection, schedule: Q01DX009 (ip), vehicle: saline
[7] = dose: 100.0 mg/kg/injection, schedule: Q01DX009 (ip), vehicle: Klucel (hydroxypropylcellulose) (HPC)
[8] = dose: 200.0 mg/kg/injection, schedule: Q04DX003 (ip), vehicle: saline with Tween-80
[9] = dose: 100.0 mg/kg/injection, schedule: Q01DX009 (ip), vehicle: saline

## CC(=O)OC1(CSc2ccccc2)CCCCC1
[1]
  T/C: 141 % of control
[2]
  T/C: 129 % of control

## COc1cc2cc(c1Cl)N(C)C(=O)C[C@H](OC(=O)[C@H](C)N(C)C(=O)CC(C)C)[C@]1(C)O[C@H]1[C@H](C)[C@@H]1C[C@@](O)(NC(=O)O1)[C@H](OC)C=C/C=C(\C)C2
dose: 0.1 micrograms/kg/injection, schedule: Q01DX009 (ip), vehicle: saline + alcohol
  T/C: 128 % of control
dose: 0.2 micrograms/kg/injection, schedule: Q01DX009 (ip), vehicle: saline + alcohol
  T/C: 125 and 144 % of control
dose: 0.4 micrograms/kg/injection, schedule: Q01DX009 (ip), vehicle: saline + alcohol
  T/C: 125 % of control
dose: 0.8 micrograms/kg/injection, schedule: Q01DX009 (ip), vehicle: saline + alcohol
  T/C: 133 % of control
dose: 1.6 micrograms/kg/injection, schedule: Q01DX009 (ip), vehicle: saline + alcohol
  T/C: 137 % of control [3 of 4 alive]
dose: 25.0 micrograms/kg/injection, schedule: Q01DX009 (ip), vehicle: saline + alcohol
  survivor count: 4 of 4
dose: 50.0 micrograms/kg/injection, schedule: Q01DX009 (ip), vehicle: saline + alcohol
  survivor count: 3 of 4 and 6 of 6

## COC(=O)CCC1(c2ccccc2)CCCC1=O (stereo not given)
dose: 50.0 mg/kg/injection, schedule: Q01DX009 (ip), vehicle: water
  survivor count: 4 of 6
dose: 200.0 mg/kg/injection, schedule: Q01DX009 (ip), vehicle: water
  survivor count: 6 of 6
dose: 400.0 mg/kg/injection, schedule: Q01DX009 (ip), vehicle: water
  survivor count: 0 of 6

## COc1cccc(N2C(N)=NC(N)=NC2(C)C)c1
dose: 37.5 mg/kg/injection, schedule: Q01DX009 (ip), vehicle: Klucel (hydroxypropylcellulose) (HPC)
  T/C: 144 % of control

## CCN(CC)CCOC(=O)c1ccccc1N(c1ccccc1)c1ccccc1
dose: 250.0 mg/kg/injection, schedule: Q01DX009 (ip), vehicle: Klucel (hydroxypropylcellulose) (HPC)
  survivor count: 3 of 6

## O=C(Cn1ccc(=O)[nH]c1=O)Nc1nccs1
dose: 50.0 mg/kg/injection, schedule: Q04DX003 (ip), vehicle: saline
  survivor count: 2 of 6 and 4 of 6

## C/C(=N\[N+](C)(C)C)c1ccccc1
dose: 25.0 mg/kg/injection, schedule: Q04DX003 (ip), vehicle: saline
  T/C: 132 % of control

## O=C(Nc1nnc(C(F)(F)F)s1)c1c(F)cccc1F
[1]
  survivor count: 3 of 6
[2]
  survivor count: 0 of 6

## OC1c2ccccc2-c2ccccc2C1O (stereo not given)
dose: 100.0 mg/kg/injection, schedule: Q04DX002 (ip), vehicle: saline with Tween-80
  T/C: 140 % of control

## O=C(C=C(C(F)(F)F)C(F)(F)F)c1ccccc1Cl
[3]
  survivor count: 1 of 6

## CC(=O)C(c1ccccc1)[N+](C)(C)C (stereo not given)
[4]
  survivor count: 2 of 6
dose: 400.0 mg/kg/injection, schedule: Q04DX003 (ip), vehicle: other
  survivor count: 0 of 6

## CCCCCCC(N)C(C)=O (stereo not given)
[5]
  survivor count: 0 of 6

## CCC(C)(OC(C)=O)C(=O)OC1C(=O)OC2CC3C(C)=CC(=O)C(O)C3(C)C3C(O)C(O)C4(C)OCC23C14 (stereo not given)
dose: 0.02 mg/kg/injection, schedule: Q01DX009 (ip), vehicle: saline + alcohol
  T/C: 138 % of control
dose: 0.05 mg/kg/injection, schedule: Q01DX009 (ip), vehicle: saline + alcohol
  T/C: 144 % of control
dose: 0.19 mg/kg/injection, schedule: Q01DX009 (ip), vehicle: saline + alcohol
  T/C: 149 % of control
dose: 0.25 mg/kg/injection, schedule: Q01DX009 (ip), vehicle: saline + alcohol
  T/C: 140 % of control
dose: 0.5 mg/kg/injection, schedule: Q01DX009 (ip), vehicle: saline + alcohol
  T/C: 148 % of control
dose: 1.0 mg/kg/injection, schedule: Q01DX009 (ip), vehicle: saline + alcohol
  T/C: 142 % of control
dose: 1.5 mg/kg/injection, schedule: Q01DX009 (ip), vehicle: saline + alcohol
  survivor count: 3 of 6
dose: 4.0 mg/kg/injection, schedule: Q01DX009 (ip), vehicle: saline + alcohol
  survivor count: 3 of 4

## O=C1C=CC(=O)N1CCc1ccccc1
dose: 40.0 mg/kg/injection, schedule: Q04DX003 (ip), vehicle: saline with Tween-80
  survivor count: 0 of 6

## CC1=C[P+](c2ccccc2)(c2ccccc2)C=C(c2ccccc2)O1
dose: 50.0 mg/kg/injection, schedule: Q01DX005 (ip), vehicle: saline with Tween-80
  survivor count: 0 of 5
dose: 100.0 mg/kg/injection, schedule: Q01DX005 (ip), vehicle: saline with Tween-80
  survivor count: 0 of 5
dose: 200.0 mg/kg/injection, schedule: Q01DX005 (ip), vehicle: saline with Tween-80
  survivor count: 0 of 5

## CCC/C(C)=N/Nc1ccccn1
dose: 12.5 mg/kg/injection, schedule: Q01DX009 (ip), vehicle: saline
  survivor count: 0 of 6
[6]
  survivor count: 0 of 6
[7]
  T/C: 125 % of control
  survivor count: 2 of 6
[1]
  survivor count: 5 of 6

## CN1CCCC1CCNc1nc(C(Cl)(Cl)Cl)nc2ccc(Cl)cc12 (stereo not given)
[1]
  survivor count: 5 of 6
[8]
  survivor count: 1 of 6

## C=CCN(C#N)CC=C
dose: 18.75 mg/kg/injection, schedule: Q04DX003 (ip), vehicle: saline
  survivor count: 6 of 6
dose: 37.5 mg/kg/injection, schedule: Q04DX003 (ip), vehicle: saline
  survivor count: 4 of 6
dose: 50.0 mg/kg/injection, schedule: Q04DX003 (ip), vehicle: saline with Tween-80
  survivor count: 3 of 6
dose: 75.0 mg/kg/injection, schedule: Q04DX003 (ip), vehicle: saline
  survivor count: 1 of 6
dose: 100.0 mg/kg/injection, schedule: Q04DX003 (ip), vehicle: saline with Tween-80
  survivor count: 3 of 6
[8]
  survivor count: 3 of 6

## Nc1nc2c(ccc3ccccc32)s1
[2]
  T/C: 126 % of control

## N#CC(C#N)=Cc1ccc(Cl)c(Cl)c1
dose: 200.0 mg/kg/injection, schedule: Q04DX003 (ip), vehicle: Klucel (hydroxypropylcellulose) (HPC)
  survivor count: 4 of 6

## CC1=C(Br)C(=O)C(c2c(C)cc(C)cc2C)=C(Br)C1=O
[6]
  survivor count: 6 of 6
dose: 50.0 mg/kg/injection, schedule: Q01DX009 (ip), vehicle: saline
  survivor count: 5 of 6
[9]
  survivor count: 5 of 6
[5]
  survivor count: 2 of 6

## CCC(=N\NC(=S)NCCN(CC)CC)/C(C)=N/NC(=S)NCCN(CC)CC
dose: 3.13 mg/kg/injection, schedule: Q01DX009 (ip), vehicle: saline
  T/C: 130 % of control
dose: 6.25 mg/kg/injection, schedule: Q01DX009 (ip), vehicle: saline
  T/C: 130 % of control

## C[N+]1(C)N=C([O-])N(c2ccccc2C(F)(F)F)C1=O
[2]
  survivor count: 4 of 6

## c1ccc(-c2nc3ccccc3nc2-c2ccc(-c3ccc(-c4nc5ccccc5nc4-c4ccccc4)cc3)cc2)cc1
[1]
  survivor count: 6 of 6

## CCOC(=O)N1CCN(CCCCCOc2ccc(CC(C)(C)C)cc2Cl)CC1
[2]
  T/C: 126 % of control [5 of 6 alive]

## CCCCNCCC(SS)c1ccc(Cl)cc1 (stereo not given)
[8]
  survivor count: 6 of 6

## COc1cc(/C=N/NC(=O)C[n+]2ccccc2)cc(OC)c1
[9]
  survivor count: 6 of 6

## C[N+](C)(Cn1nc(Cl)c2ccc([N+](=O)[O-])cc21)Cn1nc(Cl)c2ccc([N+](=O)[O-])cc21
dose: 400.0 mg/kg/injection, schedule: Q04DX003 (ip), vehicle: saline with Tween-80
  survivor count: 1 of 6

## OC1OCCOC1O (stereo not given)
dose: 60.0 mg/kg/injection, schedule: Q01DX009 (ip), vehicle: saline
  T/C: 142 % of control
[9]
  T/C: 141 and 142 % of control
[5]
  T/C: 149 % of control
dose: 600.0 mg/kg/injection, schedule: Q01DX009 (ip), vehicle: saline
  survivor count: 3 of 6

## CN(N/C=N/S(=O)(=O)c1ccccc1)c1ccccc1
[2]
  survivor count: 6 of 6

## Cc1cc(=O)[nH]c2c1CCCC2
[3]
  T/C: 127 % of control
dose: 150.0 mg/kg/injection, schedule: Q01DX009 (ip), vehicle: saline with Tween-80
  T/C: 127 % of control

## OCc1cc(Cl)ccc1O
[4]
  T/C: 127 and 133 % of control
